This experiment addresses GerD–mScarlet-I (Bacillus cereus ATCC 14579). Description: FRET or BRET; sensitized emission (filter) FRET by wide-field fluorescence microscopy in single dormant B. cereus spores; donor SGFP2, acceptor mScarlet-I; normalized FRET (NFRET) corrected for bleed-through and cross-excitation. On the technique in general: BRET reads energy transfer from a luciferase to a nearby fluorophore.

Results are given in words; binding and its absence hold for the method and conditions named. Binding seen in cells or lysates may run through a third protein. Sequences can lack the tags named with a protein.

B1: SASP–SGFP2 (protein, UniProt P0A4F4 1-65)
chain: MSRSTNKLAVPGAESALDQMKYEIAQEFGVQLGADATARANGSVGGEITKRLVSLAEQQLGGYQK
B1: the binding entry is on record as “no binding”.

These data come from PMC8539644.
